Assay results: patent US5696093A (CRC for Biopharmaceutical Research Pty Limited, priority 1994, dated 1997)
Entries after “also recorded” stand apart in the source; their conditions may differ. At least one peptide structure holds a part that was inferred or is arguable (an end, a ring closure or a residue).

How the values were obtained:
[1] = test system: internal maxillary artery; experiment: Arterial blood pressure and nasal arterial blood flow in anaesthetised dogs after i.v. peptide; format: in vivo; conditions: dog
dog nasal mucosa = experiment: Parasympathetic nerve-evoked nasal vasodilatation in anaesthetised dogs; format: in vivo
[2] = Y1 agonist 8 nmol kg^-1, Y2 agonist 20 nmol kg^-1, Leu^31 ] NPY 24-36

In the case of “Ac-LRHYLNLLTRQRY-NH2 [N-acetyl [Leu^28, Leu^31] neuropeptide Y-(24-36)]”, the “effect on blood pressure, in words” value [1, 2] is reported as “remained unchanged”, the “effect on nasal blood flow (vasoconstrictor effect), in words” value [1, 2] is reported as “remained unchanged; also recorded: no significant vasoconstrictor effect” and the “effect on blood pressure, in words” value ([1]; Y1 agonist 8 nmol kg^-1, Y2 agonist 20 nmol kg^-1, Leu^31 ], NPY 24-36) is reported as “no pressor effects in dogs”. For the same substance, the “reduction of response to parasympathetic stimulation thirty minutes later” value (dog nasal mucosa; 20 nmol kg^-1 i.v., 30 min) was 31±5%, the “reduction of vasodilator response to parasympathetic stimulation just after administration” value (dog nasal mucosa; i.v., NPY 8 nmol kg^-1 (20 and 30 Hz), Y2 agonist 20 nmol kg^-1 (10, 20 and 30 Hz), atropine-resistant) was about 50% and the “parasympathetic vasodilatation after administration, in words” value (dog nasal mucosa; i.v., Y1 agonist 8 nmol kg^-1, Y2 agonist 20 nmol kg^-1) was “subsequent parasympathetic vasodilatation is reduced”. For the same substance, the “parasympathetic vasodilatation one hour after administration, in words” value (dog nasal mucosa; i.v., Leu^31 ] NPY 24-36) was “same magnitude as that before the administration” and the “parasympathetic vasodilatation one hour after administration, in words” value (dog nasal mucosa; i.v., listed as Y2 receptor agonist) was “remained smaller but were not significantly different in magnitude”.
